# Primary screen of a compound library

Sequences of proteins named here, by UniProt entry; tags and fusion partners are left off. Residues count along the entry.
UniProt P9WNZ1, whole entry: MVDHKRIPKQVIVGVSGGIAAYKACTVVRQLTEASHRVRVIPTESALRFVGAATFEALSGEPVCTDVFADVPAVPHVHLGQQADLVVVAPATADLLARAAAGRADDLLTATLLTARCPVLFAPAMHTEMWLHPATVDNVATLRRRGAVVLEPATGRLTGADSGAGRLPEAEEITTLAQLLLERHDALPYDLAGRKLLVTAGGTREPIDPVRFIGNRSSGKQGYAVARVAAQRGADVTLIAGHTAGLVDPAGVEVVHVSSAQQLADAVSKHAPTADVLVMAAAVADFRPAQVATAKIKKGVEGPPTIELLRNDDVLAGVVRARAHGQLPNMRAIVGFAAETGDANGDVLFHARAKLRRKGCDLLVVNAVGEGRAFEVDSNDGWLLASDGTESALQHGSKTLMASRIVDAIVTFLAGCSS
UniProt Q4DA54, 1-478: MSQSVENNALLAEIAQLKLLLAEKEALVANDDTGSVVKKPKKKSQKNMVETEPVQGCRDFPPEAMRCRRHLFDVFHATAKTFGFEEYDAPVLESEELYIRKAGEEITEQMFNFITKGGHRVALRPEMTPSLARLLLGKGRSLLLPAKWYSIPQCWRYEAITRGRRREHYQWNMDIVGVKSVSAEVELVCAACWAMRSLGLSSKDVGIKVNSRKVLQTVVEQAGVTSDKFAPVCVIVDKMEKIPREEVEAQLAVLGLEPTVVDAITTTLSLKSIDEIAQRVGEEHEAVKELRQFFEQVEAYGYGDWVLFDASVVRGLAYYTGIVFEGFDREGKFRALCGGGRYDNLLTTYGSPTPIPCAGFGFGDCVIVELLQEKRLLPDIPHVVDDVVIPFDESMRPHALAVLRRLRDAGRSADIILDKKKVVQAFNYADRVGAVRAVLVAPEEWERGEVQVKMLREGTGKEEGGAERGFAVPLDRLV

Results are given as percent effect.
How 0% and 100% were set is not recorded. Most values in the screen are low, and negative values occur.
The compounds are a random part of those screened.
A dash means the value is not listed here; it may have been measured.

A: 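Enzyme assay of CoaBC with a phosphate dye (Biomol Green) read at 650 nm. Target: Coenzyme A biosynthesis protein CoaBC, Mycobacterium tuberculosis (UniProt P9WNZ1). Concentration: 30 µM. Direction is inferred from only a few compounds that gave an IC50; most scored high, so higher reads as stronger inhibition. Most strong results did not repeat in a second test. Of about 67,000 compounds tested this way, about 40 (0.06%) reached 50% or more in at least one test.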
B: 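Enzyme assay of histidyl-tRNA synthetase; the read-out is not stated. Target: Histidine-tRNA ligase, Trypanosoma cruzi CL Brener (UniProt Q4DA54). Concentration: 30 µM. Direction is inferred from retests: higher values go with stronger inhibition. Of about 69,000 compounds tested this way, about 31 (0.045%) reached 50% or more in at least one test.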

compound	A	B
Cc1noc(OCC(=O)N2CCCCC2C)n1 (configuration not stated)	6.163%	1.587%
CCNC(=O)N1C[C@@H]2OCC(=O)N(CC3CCCCC3)[C@@H]2C1	-18.27%	-1.493%
Cc1n[nH]cc1CNCC1(c2cccc(F)c2)CCOCC1	7.391%	2.674%
Cc1cccc(CN2CCc3c(CNC(=O)CC#N)nn(C)c3C2)n1	-45.42%	6.952%
CN(Cc1ccccc1CNC(=O)C1CNC(=O)N1)C1CCCCC1 (configuration not stated)	4.459%	3.867%
COc1ccc(NC(=O)Cn2nc(C)ccc2=O)cc1OC	-0.4038%	-3.825%
COCC1Cn2nnc(-c3cnn(C)c3)c2CN1Cc1cccs1 (configuration not stated)	12.94%	3.365%
Cc1ccccc1-n1cc(C2=CCN(CCN3CCOCC3)CC2)cn1	6.684%	-2.235%
Cc1ccc(NC(=O)CNc2cccc3c2CCCC3)c(Br)c1	5.727%	-3.39%
COc1cc(CNc2cc(-c3nncn3C)ccn2)cc(OC)c1OC	-8.171%	-15%
O=C(NCC1CC1)C1CN(C(=O)c2ccnnc2)CC12CCOCC2 (configuration not stated)	12.42%	3.226%
N#CC1(C(=O)N2CCOC(c3ccc(F)cc3)C2)CCCCC1 (configuration not stated)	-5.99%	9.845%
O=C1OCCN1CCN1CCCN(Cc2ccccc2F)CC1	-25.81%	8.511%
CC(C)(C)c1n[nH]c(C2CN(C(=O)Cn3ccccc3=O)CCO2)n1 (configuration not stated)	6.087%	5.444%
Cc1cc(CS(=O)(=O)C(C)C(=O)N(C)c2ccccc2)on1 (configuration not stated)	3.713%	-0.6135%
CN(Cc1ccno1)c1nc(C2CCCC2)nc2c1cnn2C	-6.378%	6.533%
Cc1csc(CN2CC[C@H]3C(=O)N(c4cccnc4)CCO[C@H]3C2)n1	13.75%	2.674%
CCS(=O)(=O)Cc1ccn(-c2cccc(F)c2)n1	0%	4.433%
COc1ccc(CNC(C)Cn2cccn2)cc1F (configuration not stated)	4%	4.023%
Cn1nnc2c(N3CC(C(=O)NCCC4=CCCCC4)C3)ncnc21	1.654%	9.135%
CCN(CC)CCn1c(=O)oc2ccccc21	2.461%	11.34%
COc1ccc(CCNC(=O)NCc2cccc(C(N)=O)c2)cc1OC	11.9%	0%
Cn1nc(-c2ccccc2)cc1[C@H]1CN2CC[C@H]1C[C@@H]2CNS(C)(=O)=O	-32.81%	-2.488%
c1cc(COc2ccc(CNC3CCc4ncnn4C3)cc2)ccn1 (configuration not stated)	2.895%	11.44%
O=C(Cc1csc(-c2ccco2)n1)N1CCN(CCO)CC1	8.616%	4.887%
COc1ccc(CC(=O)Nc2c(C)nc(N3CCCC3)nc2C)cc1	5.708%	3.093%
O=C(O)c1cc(-c2cccnc2)cc(S(=O)(=O)NCc2ccccn2)c1	5.2%	4.598%
Cc1nonc1NC(=O)c1ccc(F)c(COCC2CC2)c1	9.208%	-3.665%
CCCc1nc(C(=O)NCCCn2nnc3ccccc32)cs1	1.474%	3.704%
CCc1nc(CN2CCCN(C(=O)c3cncnc3C)CC2)cs1	3.579%	2.5%
NC(=O)CC1CC2(CCNCC2)c2cc(F)ccc21 (configuration not stated)	-0.3713%	1.508%
CCSc1ccc(C(=O)N2CCCC2C(=O)N2CCOCC2)cn1 (configuration not stated)	1.937%	6%
COCCN1CCC(CNC(=O)C2(c3cc(C)cc(C)c3)CC2)CC1	8.301%	5.202%
Cc1noc(C)c1CCCNC(=O)C1CCN(C(=O)C2CCC2)CC1	-2.372%	7.143%
CC(C)c1nn(C)c(N(C)C)c1CNC1CCOc2c(F)cccc21 (configuration not stated)	-0.1156%	-0.8772%
Cc1nn(C)c2ncnc(N3CCCC(OCc4ccccn4)C3)c12 (configuration not stated)	15.77%	2.041%
CC(C)SCCNC(=O)c1cccc2ccnn12	8.8%	1.149%
COc1ccc(CCNC(=O)CN2CCOCS2(=O)=O)cc1	-1.225%	-3.571%
COCCn1cc(C(=O)NC2CCS(=O)(=O)C2)c2ccccc2c1=O (configuration not stated)	1.928%	3.96%
COCCC1CN(Cc2cn(CCC(N)=O)c3ccccc23)CCO1 (configuration not stated)	2.564%	5.946%
COCC1c2c(cnn2C)CCN1Cc1ccco1 (configuration not stated)	1.754%	1.22%
CCOc1cccc(COC(=O)c2cscn2)n1	-	10.53%
CCN(CC)S(=O)(=O)N1CCCC(c2nccn2Cc2cccnc2)C1 (configuration not stated)	-2.893%	2.717%
COCCn1cncc1Cn1ncc2ccccc2c1=O	10.37%	10.45%
CC(=O)N1CCCC(c2nccnc2Nc2nc(C)cc(C)n2)C1 (configuration not stated)	-2.283%	3.143%
CN(CCc1ccc2c(c1)CCO2)CC1CCS(=O)(=O)C1 (configuration not stated)	8.471%	3.175%
O=C(CN1CCCCC1)NCc1cccnc1-n1cnc2ccccc21	1.19%	3.061%
COCC(=O)N1C[C@@H]2CCCO[C@@H]2[C@H](N(C)Cc2ccco2)C1	0.1233%	7.895%
COc1ccccc1-c1cc(NC(=O)CCC2CCCO2)[nH]n1 (configuration not stated)	-0.4831%	12.26%
CC(=O)N1CCC(c2nccnc2Nc2ncc(C)s2)CC1	0.7264%	1.111%
Cn1nccc1CN1CCCC(COc2ccccc2F)C1 (configuration not stated)	-6.294%	4.887%
CCN1CCN(C)C2(CCN(C(=O)CC(F)(F)F)CC2)C1=O	3.515%	-1.676%
O=C(Nc1ccccc1)C1CN(CC2CCOCC2)CC12CCOCC2 (configuration not stated)	1.468%	5.941%
CC(CCS(C)(=O)=O)NC(=O)NCc1ccc2c(c1)CCC2 (configuration not stated)	2.415%	9.677%
CC(=O)N1CC(=O)N(c2cnn(C)c2)CC12CCN(Cc1ccsc1)C2 (configuration not stated)	-6.004%	5.882%
Cc1cc(C(=O)N2CCCC2)ccc1NCCO	-2.016%	4.202%
O=S(=O)(c1ccccc1)N1CCC2(CCCN2Cc2cccnc2)C1 (configuration not stated)	2.75%	20.59%

From ChEMBL document CHEMBL3988442, “University of Dundee, Small-Polar-MMV Screening Library” (2021).